Reference: paper doi:10.1101/386631
Results are given in words; binding and its absence hold for the method and conditions named. Binding seen in cells or lysates may run through a third protein. Some results given as binding are weak or reduced against the parent protein; the word gives no strength.

Amino acid sequences for entries named in this document (tags omitted). Residues count along the entry.
UniProt P29323, residues 19-1055: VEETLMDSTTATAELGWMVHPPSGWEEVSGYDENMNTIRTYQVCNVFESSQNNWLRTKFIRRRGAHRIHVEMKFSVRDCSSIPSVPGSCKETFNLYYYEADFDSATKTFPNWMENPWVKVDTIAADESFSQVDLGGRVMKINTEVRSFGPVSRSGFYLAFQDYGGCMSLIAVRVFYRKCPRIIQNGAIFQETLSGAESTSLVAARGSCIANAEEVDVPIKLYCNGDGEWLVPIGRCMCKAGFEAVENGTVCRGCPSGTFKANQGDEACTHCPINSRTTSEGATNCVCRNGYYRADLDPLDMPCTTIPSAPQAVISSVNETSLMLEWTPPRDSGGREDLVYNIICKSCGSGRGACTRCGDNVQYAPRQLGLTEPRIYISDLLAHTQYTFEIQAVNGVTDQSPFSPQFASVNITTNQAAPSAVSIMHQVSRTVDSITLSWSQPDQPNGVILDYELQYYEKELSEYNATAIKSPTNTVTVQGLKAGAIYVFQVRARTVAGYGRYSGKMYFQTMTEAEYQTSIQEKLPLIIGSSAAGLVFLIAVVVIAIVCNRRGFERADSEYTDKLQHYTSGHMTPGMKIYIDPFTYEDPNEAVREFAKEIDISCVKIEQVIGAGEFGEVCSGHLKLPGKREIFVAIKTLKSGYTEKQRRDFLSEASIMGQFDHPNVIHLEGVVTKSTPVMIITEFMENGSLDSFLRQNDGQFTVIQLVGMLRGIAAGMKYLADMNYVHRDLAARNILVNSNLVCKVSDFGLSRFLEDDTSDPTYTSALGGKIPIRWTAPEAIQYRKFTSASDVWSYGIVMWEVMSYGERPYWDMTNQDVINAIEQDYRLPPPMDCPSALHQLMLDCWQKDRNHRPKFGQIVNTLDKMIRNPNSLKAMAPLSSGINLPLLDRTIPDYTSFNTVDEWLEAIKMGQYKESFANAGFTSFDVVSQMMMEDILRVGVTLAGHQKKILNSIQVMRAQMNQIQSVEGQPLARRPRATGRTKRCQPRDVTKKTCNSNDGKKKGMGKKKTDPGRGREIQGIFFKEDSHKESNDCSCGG
UniProt Q9H3S7: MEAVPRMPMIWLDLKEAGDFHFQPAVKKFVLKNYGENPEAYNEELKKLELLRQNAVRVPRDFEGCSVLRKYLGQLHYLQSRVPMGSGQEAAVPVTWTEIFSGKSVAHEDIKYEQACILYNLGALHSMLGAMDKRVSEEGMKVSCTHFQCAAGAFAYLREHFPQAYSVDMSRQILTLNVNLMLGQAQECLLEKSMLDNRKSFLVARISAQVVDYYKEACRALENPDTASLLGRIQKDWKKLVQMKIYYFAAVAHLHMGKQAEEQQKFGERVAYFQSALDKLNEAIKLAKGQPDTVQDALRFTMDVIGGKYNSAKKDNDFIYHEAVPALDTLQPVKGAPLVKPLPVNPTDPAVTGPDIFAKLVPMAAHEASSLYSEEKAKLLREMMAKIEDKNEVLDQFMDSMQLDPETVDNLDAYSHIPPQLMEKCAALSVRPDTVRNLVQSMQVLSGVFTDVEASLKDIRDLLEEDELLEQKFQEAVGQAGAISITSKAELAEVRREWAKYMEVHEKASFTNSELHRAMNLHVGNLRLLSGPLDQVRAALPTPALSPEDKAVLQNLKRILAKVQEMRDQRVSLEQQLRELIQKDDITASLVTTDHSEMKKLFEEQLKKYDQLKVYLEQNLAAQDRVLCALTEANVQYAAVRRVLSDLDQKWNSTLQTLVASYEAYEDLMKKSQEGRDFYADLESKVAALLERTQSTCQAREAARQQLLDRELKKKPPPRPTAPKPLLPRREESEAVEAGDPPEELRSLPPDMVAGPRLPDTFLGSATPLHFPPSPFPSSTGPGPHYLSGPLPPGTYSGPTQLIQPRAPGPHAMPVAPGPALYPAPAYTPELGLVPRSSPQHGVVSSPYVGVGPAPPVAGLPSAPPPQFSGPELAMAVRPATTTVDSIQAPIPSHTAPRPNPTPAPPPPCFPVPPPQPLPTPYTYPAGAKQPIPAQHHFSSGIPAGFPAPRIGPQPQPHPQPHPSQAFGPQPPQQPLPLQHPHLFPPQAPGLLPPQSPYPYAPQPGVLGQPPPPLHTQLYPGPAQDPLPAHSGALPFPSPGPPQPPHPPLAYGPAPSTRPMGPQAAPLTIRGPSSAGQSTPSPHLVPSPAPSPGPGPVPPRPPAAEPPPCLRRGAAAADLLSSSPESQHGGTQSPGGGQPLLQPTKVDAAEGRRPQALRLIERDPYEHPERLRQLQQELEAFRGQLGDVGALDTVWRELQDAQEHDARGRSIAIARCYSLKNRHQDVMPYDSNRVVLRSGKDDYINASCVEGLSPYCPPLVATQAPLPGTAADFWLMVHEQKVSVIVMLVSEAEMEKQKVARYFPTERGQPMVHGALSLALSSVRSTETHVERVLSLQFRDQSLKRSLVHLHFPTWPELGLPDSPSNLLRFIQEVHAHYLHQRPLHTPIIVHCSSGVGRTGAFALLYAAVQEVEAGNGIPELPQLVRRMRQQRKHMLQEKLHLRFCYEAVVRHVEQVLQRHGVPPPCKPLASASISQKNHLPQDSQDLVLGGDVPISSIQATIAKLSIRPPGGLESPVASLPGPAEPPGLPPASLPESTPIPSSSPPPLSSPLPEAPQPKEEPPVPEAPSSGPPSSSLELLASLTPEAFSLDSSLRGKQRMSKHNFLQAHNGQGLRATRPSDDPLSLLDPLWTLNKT

Biological target: EphB2-BirA*-FLAG (UniProt P29323)
Assay: co-IP

binding: binds
Substance: HD-PTP-HA (from UniProt Q9H3S7 1-1636)
